Assay results: patent US20150258047A1, “Therapeutic Compounds” (AKTHELIA PHARMACEUTICALS, priority 2011, published 2015)
Some entries share one result that the patent states for a list of compounds.

System: E. coli strain E2348/69 (EPEC)
Type: cell-based
Conditions: 120 mM PBA; overnight incubation at 37° C.
Protocol: To assess bactericidal activity of synthetic CAP-18 and PBA, an in vitro killing experiment was carried out with E. coli strain E2348/69 (EPEC). […] Note that dosing in Phase II TB study is 1 g daily with 5000 IU vitamin D.

## O=C(O)CCCc1ccccc1 [PBA, sodium 4-phenylbutyrate, reference compound]
  killing of EPEC: 97-99%
